Measured values from patent publication US20100234238A1, “METHOD FOR PROFILING KINASE INHIBITORS” (Janssen Pharmaceutica N V, priority 2006, published 2010).
The source gives many values for each of these; only a part stands here.

Tested on: tyrosine kinase activity in xenograft tumor lysates
Test: PAMCHIP96 (140-peptide array) profiling of xenograft tumor lysates in absence or presence of MTKI
Format: biochemical
Conditions: 5 μM
Method: 100 mg of frozen tumor or tissue blocks, or sections, are lysed in 1 ml of M-PER buffer (PIERCE) containing phosphatase and protease inhibitors (HALT, PIERCE). The suspension is mixed using a ULTRA-TURRAX blender (IKA werke), and centrifuged twice for 10 minutes at 12 000×g. Supernatant lysates are filtered through a 0.2 micrometer filter (Anotop 0.2 μm anopore filter; Whatmann). Lysates are flash frozen in liquid nitrogen and stored at −80C.
Just prior to the PAMCHIP experiment, total protein content is quantitated in the lysates and lysates are diluted to 1 mg/ml in a total volume of 200 μl, with M-PER phosphatase and protease inhibitors (HALT, PIERCE). 10 μg of total lysate (corresponding to 10 μl) will be used per well on the PAMCHIP96.
To all 200 μl lysates 10 units of benzonase (Novagen) is added and lysates are further incubated for 30 min on ice and next centrifuged for 10 minutes at 12 000×g. The supernatant is then 1:1 diluted with compound or DMSO diluted to the appropriate concentration in water, and lysates are further incubated exactly 60 min on ice. Meanwhile, a PAMCHIP96 tyrosine peptide chip (PAMGENE) is blocked with 2% BSA (filtered through a 0.2 μm anopore filter; Whatmann) using the standard setting of a PAMSTATION96 (PAMGENE).
The composition of the kinase buffer is as follows: 1×ABL buffer (NEB), 0.5 mg/ml BSA (from 10 mg/ml NEB stock), 100 μM ATP (dissolved and diluted in 1×ABL buffer), 5 μg/ml PY20-FITC (ExAlpha Biologicals, azide-free preparation). A twofold concentrated kinase buffer is prepared chilled on ice, DMSO or compound is added as appropriate, and the solution is added 1:1 to the (compound treated) ice cold lysates, and immediately applied to a tyrosine peptide PAMCHIP96. The assay is run on a PAMSTATION96 according to standard procedures: after loading of the plate, solution is pumped once onto the wells, a first exposure is read (150 mSec) and then a kinetic reading program (reading every 5 min for 150 mSec) is run for 60 min. Lysates are run in 6 technical replicates for each condition; replicates are always applied horizontally next to each other to avoid vertical strip effects of the chip.
The data (spot images) are further quantified and linked to the peptide identities using EVOLVE PAMGRID software (PAMGENE). The quantified data are then fit to a curve using CurveFitHT software (PAMGENE) using the Vinip2 curve fitting algorithm, applied on the first 30 min of the assay; the initial velocity is derived at the first kinetic time point read. All subsequent data analyses were done on initial velocities (Vini) using the software packages Omniviz and R (Ihaka, R. and Gentlemen, R. (1996) R: a language for data analysis and graphics. J. Comput. Graph. Stat., 5, 299-314).
After replacing the Vini's lower than 0.1 by 0.1, all Vini's were log 2-transformed to approach normality. […] This test was done for each peptide separately using a mixed model (Littell, R. C., Milliken, G. A., Stroup, W. W., Wolfinger, R. D. 1996. SAS system for mixed models. Cary, N. C.: SAS Institute Inc.) allowing the incorporation of both technical variation (i.e., the variation across replicates) and biological variation (i.e., the variation among the various responding and non-responding cell lines or tumors). Variation between cell lines or tumors in Vini and in treatment effect on Vini was modeled respectively by random intercepts and random compound effects per cell line or tumor, nested in response status. The difference in compound-induced reduction in Vini between responding and non-responding cell lines or tumors was tested through the interaction between compound treatment and response status, both modeled as fixed effects.

COc1cc2ncnc3c2cc1OCCCCCN(C)Cc1ccc(Br)cc1N3 [MTKI, 4,6-ethanediylidenepyrimido[4,5-b][6,1,12]benzoxadiazacyclopentadecine, 17-bromo-8,9,10,11,12,13,14,19-octahydro-20-methoxy-13-methyl-]
ratio of initial velocity of peptide phosphorylation (A431 xenograft tumor lysate, CREB1_122_134_Y134/S133): 0.67
ratio of initial velocity of peptide phosphorylation (A431 xenograft tumor lysate, DDR1_785_797_Y792/Y796/Y797): 0.58
ratio of initial velocity of peptide phosphorylation (A431 xenograft tumor lysate, DYR1A_212_224_Y219): 0.03
ratio of initial velocity of peptide phosphorylation (A431 xenograft tumor lysate, EPHA4_589_601_Y596): 0.51
ratio of initial velocity of peptide phosphorylation (BT474 xenograft tumor lysate, CDK7_157_169_S164): 0.88
ratio of initial velocity of peptide phosphorylation (BT474 xenograft tumor lysate, CREB1_122_134_Y134/S133): 1.02
ratio of initial velocity of peptide phosphorylation (BT474 xenograft tumor lysate, DDR1_785_797_Y792/Y796/Y797): 0.94
ratio of initial velocity of peptide phosphorylation (BT474 xenograft tumor lysate, DYR1A_212_224_Y219): 0.07
ratio of initial velocity of peptide phosphorylation (BT474 xenograft tumor lysate, EPHA4_589_601_Y596): 0.79
ratio of initial velocity of peptide phosphorylation (DU145 xenograft tumor lysate, CREB1_122_134_Y134/S133): 0.93
ratio of initial velocity of peptide phosphorylation (DU145 xenograft tumor lysate, DDR1_785_797_Y792/Y796/Y797): 0.64
ratio of initial velocity of peptide phosphorylation (DU145 xenograft tumor lysate, DYR1A_212_224_Y219): 0.90
ratio of initial velocity of peptide phosphorylation (DU145 xenograft tumor lysate, EPHA4_589_601_Y596): 0.77
ratio of initial velocity of peptide phosphorylation (H322 xenograft tumor lysate, CREB1_122_134_Y134/S133): 0.80
ratio of initial velocity of peptide phosphorylation (H322 xenograft tumor lysate, DDR1_785_797_Y792/Y796/Y797): 0.71
ratio of initial velocity of peptide phosphorylation (H322 xenograft tumor lysate, DYR1A_212_224_Y219): 0.59
ratio of initial velocity of peptide phosphorylation (H322 xenograft tumor lysate, EPHA4_589_601_Y596): 0.63
ratio of initial velocity of peptide phosphorylation (H3255 xenograft tumor lysate, CREB1_122_134_Y134/S133): 0.61
ratio of initial velocity of peptide phosphorylation (H3255 xenograft tumor lysate, DDR1_785_797_Y792/Y796/Y797): 0.48
ratio of initial velocity of peptide phosphorylation (H3255 xenograft tumor lysate, DYR1A_212_224_Y219): 0.62
ratio of initial velocity of peptide phosphorylation (H3255 xenograft tumor lysate, EPHA4_589_601_Y596): 0.44
ratio of initial velocity of peptide phosphorylation (SUM149 xenograft tumor lysate, CDK7_157_169_S164): 0.93
ratio of initial velocity of peptide phosphorylation (SUM149 xenograft tumor lysate, CREB1_122_134_Y134/S133): 1.02
ratio of initial velocity of peptide phosphorylation (SUM149 xenograft tumor lysate, DDR1_785_797_Y792/Y796/Y797): 0.88
ratio of initial velocity of peptide phosphorylation (SUM149 xenograft tumor lysate, DYR1A_212_224_Y219): 0.10
ratio of initial velocity of peptide phosphorylation (SUM149 xenograft tumor lysate, EPHA4_589_601_Y596): 1.03
